This assay has as its system CD2F1 mice, L1210 leukemia ip, survival T/C. Briefly: NCI In Vivo Anticancer Drug Screen. Data for tumor model L1210 Leukemia (intraperitoneal) in CD2F1 (CDF1) mice. Conditions: higher T/C = longer survival. An outline of the steps: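 Activity against a transplanted murine tumor was judged by comparing the compound group with a vehicle group. The outcome in the treated animals was divided by that in the controls.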

Where [1] appears, read: T/C endpoint: mean survival time, dose: 200.0 mg/kg/injection, schedule: Q04DX003 (ip), vehicle: saline with Tween-80.
[2] abbreviates: T/C endpoint: mean survival time, dose: 400.0 mg/kg/injection, schedule: Q04DX003 (ip), vehicle: saline with Tween-80.
The mark [3] stands for this setting: T/C endpoint: mean survival time, dose: 300.0 mg/kg/injection, schedule: Q01DX001 (ip), vehicle: saline.
[4] abbreviates: T/C endpoint: mean survival time, dose: 100.0 mg/kg/injection, schedule: Q04DX002 (ip), vehicle: saline with Tween-80.
The mark [5] stands for this setting: T/C endpoint: mean survival time, dose: 200.0 mg/kg/injection, schedule: Q04DX002 (ip), vehicle: saline with Tween-80.
The mark [6] stands for this setting: T/C endpoint: mean survival time, dose: 400.0 mg/kg/injection, schedule: Q01DX001 (ip), vehicle: saline with Tween-80.
Where [7] appears, read: T/C endpoint: mean survival time, dose: 100.0 mg/kg/injection, schedule: Q04DX003 (ip), vehicle: saline with Tween-80.

This is an account of results in PubChem BioAssay AID256 (DTP/NCI, 2004).

The structures appear in SMILES notation. The list does not hold the whole screen: it is rich in T/C values a quarter to a half above the control, in often repeated tests (any T/C) and in doses without a T/C. Further doses and runs are listed elsewhere. T/C: endpoint of the treated group in % of that of the vehicle group. Some entries give survivors of the animals treated and no T/C: the source files T/C as zero there, which appears to mark a toxic dose or a test without result, not a measured value. Some doses without a T/C left all or most animals alive at the check, yet need not have been tolerated: the source hardly ever lists a survival T/C far under the control, and the zero likely stands for such cases as well. Counts of survivors are from the toxicity check (mostly the fifth day) where no day follows; animals may have died later. Schedule codes are those of the source, taken here to give the interval after Q, in days (D) or hours (H), and the number of doses after X. Some entries hold several experiments; their values stand side by side, smallest first. Where survival is the endpoint, this PubChem deposit counts one and a half times the control or more as active, and values a quarter to a half above the control carry no call in these data; other NCI protocols may use other cut-offs.

In the case of `CC1(C)N=C(N)N=C(N)N1c1ccc(C(C#N)CCCc2ccccc2)cc1` (stereo not drawn), the survivor count is, setting by setting: (T/C endpoint: mean survival time, dose: 50.0 mg/kg/injection, schedule: Q01DX009 (ip), vehicle: Klucel (hydroxypropylcellulose) (HPC)) 3 of 3; (T/C endpoint: mean survival time, dose: 100.0 mg/kg/injection, schedule: Q01DX009 (ip), vehicle: Klucel (hydroxypropylcellulose) (HPC)) 0 of 3; (T/C endpoint: mean survival time, dose: 200.0 mg/kg/injection, schedule: Q01DX009 (ip), vehicle: Klucel (hydroxypropylcellulose) (HPC)) 0 of 3.
Regarding `[NH-]NC(=S)[S-].[NH-]NC(=S)[S-].[Pd]`, the survivor count by setting is: under setting [1], 4 of 6; under setting [2], 0 of 6.
`CN(C)C(=Nc1ccccc1)N(C)N`: under setting [3], the survivor count is reported as 0 of 6.
As to `COc1cc(C(CC(C)=O)c2cc3c(cc2OC(C)=O)OCO3)cc(OC)c1OC` (stereo not drawn) (tested in a mixture with another compound), where the note is “T/C endpoint: median survival time, dose: 120.0 mg/kg/injection, schedule: Q01DX005 (ip), vehicle: saline with Tween-80”, the T/C is 132, 138, 142 % of control. The survivor count reads like this: (T/C endpoint: median survival time, dose: 333.0 mg/kg/injection, schedule: Q01DX005 (ip), vehicle: saline with Tween-80) 2 of 6; (T/C endpoint: median survival time, dose: 333.33 mg/kg/injection, schedule: Q01DX005 (ip), vehicle: saline with Tween-80) 6 of 6; (T/C endpoint: median survival time, dose: 555.56 mg/kg/injection, schedule: Q01DX005 (ip), vehicle: saline with Tween-80) 1 of 6.
`CC[N+](C)(CC)Cc1ccc([NH-])c([NH-])c1.[Cl][Pt+2][Cl]`: the survivor count (T/C endpoint: mean survival time, dose: 25.0 mg/kg/injection, schedule: Q04DX003 (ip), vehicle: water) was 0 of 6; the survivor count (T/C endpoint: mean survival time, dose: 50.0 mg/kg/injection, schedule: Q04DX003 (ip), vehicle: water) is reported as 0 of 6; the survivor count (T/C endpoint: mean survival time, dose: 100.0 mg/kg/injection, schedule: Q04DX003 (ip), vehicle: water) is on record as 0 of 6; the survivor count (T/C endpoint: mean survival time, dose: 200.0 mg/kg/injection, schedule: Q04DX003 (ip), vehicle: water) is given as 0 of 6.
Consider `COC1OC(COC(C)=O)C(OC(C)=O)C(NC(=O)N(CCCl)N=O)C1OC(C)=O` (stereo not drawn), for which the survivor count (T/C endpoint: mean survival time, dose: 100.0 mg/kg/injection, schedule: Q01DX001 (ip), vehicle: saline with Tween-80) is 9 of 10; the survivor count (T/C endpoint: mean survival time, dose: 150.0 mg/kg/injection, schedule: Q01DX001 (ip), vehicle: saline with Tween-80) is 9 of 10; the survivor count (T/C endpoint: mean survival time, dose: 225.0 mg/kg/injection, schedule: Q01DX001 (ip), vehicle: saline with Tween-80) is on record as 7 of 10.
Consider `CO[C@@]12[C@@H]3N[C@@H]3CN1C1=C(C(=O)C(Nc3nc(C)cs3)=C(C)C1=O)[C@@H]2COC(N)=O`, for which the T/C was 127 % of control (T/C endpoint: mean survival time, dose: 3.0 mg/kg/injection, schedule: Q01DX001 (ip), vehicle: water); 130 % of control (T/C endpoint: mean survival time, dose: 6.0 mg/kg/injection, schedule: Q01DX001 (ip), vehicle: water); 127 % of control (T/C endpoint: mean survival time, dose: 12.0 mg/kg/injection, schedule: Q01DX001 (ip), vehicle: water, evaluated on day 30); 128 % of control (T/C endpoint: mean survival time, dose: 12.0 mg/kg/injection, schedule: Q01DX001 (ip), vehicle: water, evaluated on day 35). Further, the survivor count (T/C endpoint: mean survival time, dose: 24.0 mg/kg/injection, schedule: Q01DX001 (ip), vehicle: water) was 0 of 6 and 1 of 6.
As to `COc1cc(CN(C)CCO)ccc1OCc1ccccc1`, the survivor count under setting [2] is given as 0 of 6.
Turning to `CCCCCCCCCCCCCCCCCCOCCOCCOCCOCCO`, the survivor count runs as follows: under setting [4], 1 of 3; under setting [5], 0 of 3.
Turning to `CO[C@]12[C@@H](COC(N)=O)C3=C(C(=O)C(C)=C(NCc4ccco4)C3=O)N1C[C@@H]1[C@H]2N1C` (stereo partly drawn), the T/C is 125 % of control (T/C endpoint: mean survival time, dose: 12.0 mg/kg/injection, schedule: Q01DX001 (ip), vehicle: distilled water + Tween-80); 133 and 136 % of control (T/C endpoint: mean survival time, dose: 24.0 mg/kg/injection, schedule: Q01DX001 (ip), vehicle: distilled water + Tween-80); 127 % of control (T/C endpoint: mean survival time, dose: 36.0 mg/kg/injection, schedule: Q01DX001 (ip), vehicle: distilled water + Tween-80).
For `CN(C)N=Nc1ccc(C(N)=O)cc1`, the T/C is 136 % of control (T/C endpoint: mean survival time, dose: 37.5 mg/kg/injection, schedule: Q01DX009 (ip), vehicle: Klucel (hydroxypropylcellulose) (HPC)); 142 % of control (T/C endpoint: mean survival time, dose: 75.0 mg/kg/injection, schedule: Q01DX009 (ip), vehicle: Klucel (hydroxypropylcellulose) (HPC)); 128 % of control (T/C endpoint: median survival time, dose: 50.0 mg/kg/injection, schedule: Q01DX005 (ip), vehicle: saline with Tween-80); 134 % of control (T/C endpoint: median survival time, dose: 60.0 mg/kg/injection, schedule: Q01DX005 (ip), vehicle: saline with Tween-80); 138 % of control (T/C endpoint: median survival time, dose: 60.0 mg/kg/injection, schedule: Q01DX009 (ip), vehicle: saline with Tween-80); 125, 138, 141 % of control (T/C endpoint: median survival time, dose: 100.0 mg/kg/injection, schedule: Q01DX005 (ip), vehicle: saline with Tween-80). Moreover, the T/C is 132 % of control (T/C endpoint: median survival time, dose: 167.0 mg/kg/injection, schedule: Q01DX005 (ip), vehicle: saline with Tween-80) and 134 % of control (T/C endpoint: median survival time, dose: 278.0 mg/kg/injection, schedule: Q01DX005 (ip), vehicle: saline with Tween-80). The survivor count reads like this: (T/C endpoint: mean survival time, dose: 300.0 mg/kg/injection, schedule: Q01DX009 (ip), vehicle: Klucel (hydroxypropylcellulose) (HPC)) 4 of 6; (T/C endpoint: median survival time, dose: 200.0 mg/kg/injection, schedule: Q01DX005 (ip), vehicle: saline with Tween-80) 4 of 6.
For `CCC1(OC(=O)CN2CCN(CCCO)CC2)C(=O)OCc2c1cc1n(c2=O)Cc2cc3ccccc3nc2-1` (stereo not drawn), where the note is “T/C endpoint: median survival time, dose: 50.0 mg/kg/injection, schedule: Q04DX002 (ip), vehicle: water”, the T/C was 128 % of control.
Consider `Nc1nc(N)c2nc(NCc3ccc(C(=O)NC(CCC(=O)O)C(=O)O)cc3)cnc2n1` (stereo not drawn), for which the T/C (T/C endpoint: mean survival time, dose: 400.0 mg/kg/injection, schedule: Q01DX009 (ip), vehicle: saline) was 128 % of control.
Take `CCOC(=O)C(C)CN(CC(C)C(=O)OCC)C(C)(C)C` (stereo not drawn): under setting [6], the survivor count is on record as 2 of 6.
Take `C[n+]1cc(Br)c2ccccc2c1`: under setting [3], the survivor count is given as 2 of 6.
`O=C1C=CC(=O)N1c1ccc(Cl)cc1[N+](=O)[O-]`: the survivor count was 6 of 6 (T/C endpoint: mean survival time, dose: 6.25 mg/kg/injection, schedule: Q01DX009 (ip), vehicle: saline with Tween-80); 2 of 6 under setting [7]; 2 of 6 under setting [1]; 0 of 6 under setting [2].
For `CN(C)CCNC1=C(Cl)C(=O)c2ccccc2C1=O`, the survivor count runs as follows: (T/C endpoint: mean survival time, dose: 50.0 mg/kg/injection, schedule: Q04DX003 (ip), vehicle: saline with Tween-80) 0 of 6; under setting [7], 0 of 6.
For the compound `O=C1C(O)=Cc2coc(=O)c3ccc(-c4ccccc4)c1c23`, the survivor count was 2 of 6 (T/C endpoint: mean survival time, dose: 200.0 mg/kg/injection, schedule: Q01DX001 (ip), vehicle: saline with Tween-80) and 1 of 6 under setting [6].
For the compound `ClC(Cl)=[C](Cl)[Hg][C](Cl)=C(Cl)Cl`, the survivor count is recorded as 2 of 6 (T/C endpoint: mean survival time, dose: 12.5 mg/kg/injection, schedule: Q01DX009 (ip), vehicle: saline with Tween-80); 0 of 6 (T/C endpoint: mean survival time, dose: 25.0 mg/kg/injection, schedule: Q01DX009 (ip), vehicle: saline with Tween-80); 1 of 3 (T/C endpoint: mean survival time, dose: 25.0 mg/kg/injection, schedule: Q04DX002 (ip), vehicle: saline with Tween-80); 0 of 3 (T/C endpoint: mean survival time, dose: 50.0 mg/kg/injection, schedule: Q04DX002 (ip), vehicle: saline with Tween-80); 0 of 3 under setting [4]; 0 of 3 under setting [5]. Also, under “T/C endpoint: mean survival time, dose: 400.0 mg/kg/injection, schedule: Q04DX002 (ip), vehicle: saline with Tween-80”, the survivor count is reported as 0 of 3.
For `CC(N)(CCC(=O)O)C(=O)O` (stereo not drawn), the survivor count (T/C endpoint: mean survival time, dose: 400.0 mg/kg/injection, schedule: Q01DX009 (ip), vehicle: saline with Tween-80) is listed as 2 of 6.
